# Measured values reported in the supplement of paper PMC8551327.
# The list shows a part of the results. Rule as the data show it: active = 1.25 or more and inactive = the rest. Many values rest on one well or one pass, so single values are uncertain.
# Test system: Kcc2-LUC knock-in mouse primary cortical neurons (Kcc2 promoter reporter)
# Assay: Kcc2 promoter-driven luciferase activity relative to vehicle control (fold of vehicle (ratio)); higher = stronger Kcc2 promoter activation (Kcc2 expression enhancer)
# Conditions: 100 nM; 48 h
row,Structure (SMILES),Kcc2 promoter-driven luciferase activity
1,O=C1C=CC(CC(=O)c2ccc3ccccc3c2)O1 (centres undefined) [2-(2-naphthalen-2-yl-2-oxoethyl)-2H-furan-5-one],inactive: 0.42
2,OC[C@H]1O[C@@H]2O[C@H]3[C@H](O)[C@@H](O)[C@@H](O[C@H]4[C@H](O)[C@@H](O)[C@@H](O[C@H]5[C@H](O)[C@@H](O)[C@@H](O[C@H]6[C@H](O)[C@@H](O)[C@@H](O[C@H]7[C@H](O)[C@@H](O)[C@@H](O[C@H]8[C@H](O)[C@@H](O)[C@@H](O[C@H]1[C@H](O)[C@H]2O)O[C@@H]8CO)O[C@@H]7CO)O[C@@H]6CO)O[C@@H]5CO)O[C@@H]4CO)O[C@@H]3CO,inactive: 0.77
3,COc1ccc([C@@H]2CC(=O)c3c(O)cc(O[C@@H]4O[C@H](CO)[C@@H](O)[C@H](O)[C@H]4O[C@@H]4O[C@@H](C)[C@H](O)[C@@H](O)[C@H]4O)cc3O2)cc1O [Neohesperidin],active: 1.25
4,COCCOC(=O)C1=C(O)c2ccccc2S(=O)(=O)N1C,inactive: 1.09
5,"[O-][S+]1c2ccccc2N=C(c2cccc3ccccc23)CC1c1cccc2ccccc12 (centres undefined) [2,4-dinaphthalen-1-yl-2,3-dihydro-1]",inactive: 1
6,CN(Cc1cnc2nc(N)nc(N)c2n1)c1ccc(C(=O)N[C@@H](CCC(=O)O)C(=O)O)cc1 [Methotrexate],inactive: 0.48
7,CCNC(=O)OCc1c(COC(=O)NCC)c(-c2ccc(Cl)c(Cl)c2)n2c1CCC2,inactive: 0.912
8,Cc1cc(=O)n2c3c(c4c(cc13)c(CN(C)C)cc(=O)n4C)OC2 [Nybomycin Deriv],inactive: 1.22
9,Cc1c2oc3c(C)ccc(C(=O)N[C@@H]4C(=O)N[C@H](C(C)C)C(=O)N5CCC[C@H]5C(=O)N(C)CC(=O)N(C)[C@@H](C(C)C)C(=O)O[C@@H]4C)c3nc-2c(C(=O)N[C@@H]2C(=O)N[C@H](C(C)C)C(=O)N3CCC[C@H]3C(=O)N(C)CC(=O)N(C)[C@@H](C(C)C)C(=O)O[C@@H]2C)c(N)c1=O [Dactinomycin],inactive: 1.1
10,O=Nc1ccc(O)c2ncccc12 [5-Nitrosoquinolin-8-ol],inactive: 0.96
11,COc1ccc2oc(-c3ccncc3)cc(=O)c2c1 [6-methoxy-2-pyridin-4-ylchromen-4-one],inactive: 0.61
12,CC1(C)C(=O)N2c3ccccc3C3(CC(N4C(=O)c5ccccc5C4=O)C(=O)O3)C2N1C(=O)OCc1ccccc1 (centres undefined),inactive: 0.76
13,CC(C)CCCCCCCCCCCCC(=O)NCC(=O)N[C@@H]1[C@@H](O)[C@H](O)[C@@H](Nc2ncnc3nc[nH]c23)O[C@H]1[C@@H](O)CO [Septacidin],inactive: 0.79
14,N#CC(c1ccccc1)N(CCCCCCN(C(=O)c1ccccc1)C(C#N)c1ccccc1)C(=O)c1ccccc1 (centres undefined),inactive: 1.06
15,Cc1ccc(Nc2nc(C)c(C(/C=C/c3ccc(/C=C/C(=N\NC(=O)C[n+]4ccccc4)c4sc(Nc5ccc(C)cc5[N+](=O)[O-])nc4C)cc3)=N/NC(=O)C[n+]3ccccc3)s2)c([N+](=O)[O-])c1,active: 1.28
16,"CC1(C)C(O)OC(O)C1(C)C (centres undefined) [3,3,4,4-tetramethyloxolane-2,5-diol]",active: 1.28
17,O=C(OCC12CC3CC(CC(C3)C1)C2)c1ccc(NCc2cc(O)ccc2O)cc1,active: 1.41
18,CC[C@@]1(O)C(=O)OCc2c1cc1n(c2=O)Cc2cc3c(N)cccc3nc2-1 [9-Amino-20-camptothecin],inactive: 0.84
19,CC12CCC(CC1)C(C)(C)O2 [Eucalyptol],active: 1.48
20,O=C(C=C1SCCS1)/C=C\c1ccc(Cl)cc1,inactive: 0.883

row,Structure (SMILES),Kcc2 promoter-driven luciferase activity
1,CCOC(=O)c1ccc(-c2cc(C)no2)[nH]1 [Ethyl 5-(3-methyl-5-isoxazolyl)-1H-pyrrole-2-carboxylate],inactive: 1.09
2,CC(C)(C)OC(=O)NC(Cc1ccccc1)C(=O)OCN1C(=O)C2C3C=CC(C2C1=O)C1C2C(=O)N(COC(=O)C(Cc4ccccc4)NC(=O)OC(C)(C)C)C(=O)C2C31 (centres undefined),inactive: 1.04
3,O=C1c2ccccc2C(=O)c2c(O)c(NCCNCCO)cc(O)c21,inactive: 0.92
4,COC(=O)C[S+]([O-])c1ccccc1 (centres undefined) [Methyl 2-(benzenesulfinyl)acetate],inactive: 0.96
5,COc1ccc(/C=C2/C(=O)N(C(=O)c3ccccc3O)N=C2C)cc1,active: 1.25
6,Nc1nc(Cl)nc2c1ncn2C1CC(O)C(CO)O1 (centres undefined) [5-(6-Amino-2-chloropurin-9-yl)-2-(hydroxymethyl)oxolan-3-ol],inactive: 0.82
7,O=C(NC1=C(Cl)C(=O)c2ccccc2C1=O)C(=O)C(C(=O)c1ccc2ccccc2c1)C1OC(=O)c2ccccc21 (centres undefined),inactive: 0.68
8,"COC1=C(N)C(=O)c2nc(C)ccc2C1=O [7-Amino-6-methoxy-2-methylquinoline-5,8-dione]",inactive: 1
9,COC(=O)c1ccccc1NC(=O)C(=O)CC(=O)c1ccccc1NC1=CC(=O)C(=O)c2ccccc21,inactive: 0.69
10,CCC(C(=O)C(C)C(O)C(C)CCc1ccc(C)c(O)c1C(=O)O)C1OC(CC)(C2CCC(O)(CC)C(C)O2)CC1C (centres undefined) [Bovatec R],inactive: 1.14
11,Cc1c(Cl)cccc1NC(=O)CC1Sc2ccccc2NC1=O (centres undefined),inactive: 0.82
12,O=C1C=CC(=O)c2c(O)c(N3CCN(CCOCCO)CC3)c(Br)c(O)c21,inactive: 0.86
13,NC(=O)CCC(NC(=O)Cc1ccccc1)C(=O)O (centres undefined) [Antineoplaston AS2-1],inactive: 0.78
14,C=C1C(=O)O[C@@H]2C[C@@]3(C)CCC[C@H](C)C3=C[C@H]12 [Alantolactone],inactive: 0.996
15,"O=[N+]([O-])c1cccc2nc3ccccc3c(NCCCNc3c4ccccc4nc4cccc([N+](=O)[O-])c34)c12 [N,N'-Bis(1-nitroacridin-9-yl)propane-1,3-diamine]",inactive: 0.94
16,Nc1ncnc2c1nnn2[C@@H]1O[C@H](CO)[C@@H](O)[C@H]1O [8-Azadenosine],inactive: 0.72
17,CC[C@@]1(O)C[C@H](O[C@H]2C[C@H](N(C)C)[C@H](O[C@H]3C[C@H](O)[C@H](O[C@H]4C[C@H](O)[C@H](O)[C@H](C)O4)[C@H](C)O3)[C@H](C)O2)c2c(cc3c(c2O)C(=O)c2c(O)ccc(O)c2C3=O)[C@H]1C(=O)OC,inactive: 1.05
18,COc1cc([C@@H]2c3cc4c(cc3[C@@H](O[C@@H]3O[C@@H]5CO[C@@H](c6cccs6)O[C@H]5[C@H](O)[C@H]3O)[C@H]3COC(=O)[C@H]23)OCO4)cc(OC)c1O [Teniposide],inactive: 1.18
19,CN(C)c1ccc(/C=C2/C=Cc3ccccc32)cc1 [1-[4-(Dimethylaminobenzylidene)]indene],inactive: 0.48

# Compounds listed so far with an NH in an aromatic ring (2):
row,Structure (SMILES),Kcc2 promoter-driven luciferase activity
13,CC(C)CCCCCCCCCCCCC(=O)NCC(=O)N[C@@H]1[C@@H](O)[C@H](O)[C@@H](Nc2ncnc3nc[nH]c23)O[C@H]1[C@@H](O)CO [Septacidin],inactive: 0.79
1,CCOC(=O)c1ccc(-c2cc(C)no2)[nH]1 [Ethyl 5-(3-methyl-5-isoxazolyl)-1H-pyrrole-2-carboxylate],inactive: 1.09
